From publication PMC12806248
These are yes or no findings as the source states them, for the method shown. In cells and extracts the contact can be indirect. These calls come from enrichment with a bait or labelling near it, and not all partners need be listed.

Chains of the proteins cited; added tags and fusions are not shown.
UniProt Q8BGZ3: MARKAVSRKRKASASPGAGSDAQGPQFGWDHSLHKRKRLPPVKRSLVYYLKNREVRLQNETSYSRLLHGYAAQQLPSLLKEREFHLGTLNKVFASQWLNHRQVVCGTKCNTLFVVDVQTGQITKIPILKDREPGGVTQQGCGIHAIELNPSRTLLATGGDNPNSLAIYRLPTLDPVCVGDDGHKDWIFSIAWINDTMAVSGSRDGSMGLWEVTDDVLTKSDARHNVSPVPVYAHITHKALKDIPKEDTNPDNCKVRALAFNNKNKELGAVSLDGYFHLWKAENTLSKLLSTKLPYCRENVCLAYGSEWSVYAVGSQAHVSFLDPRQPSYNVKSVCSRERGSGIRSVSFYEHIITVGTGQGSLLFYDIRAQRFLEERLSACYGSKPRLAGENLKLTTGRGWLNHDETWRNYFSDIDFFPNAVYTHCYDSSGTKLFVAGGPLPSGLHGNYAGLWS
UniProt P11983: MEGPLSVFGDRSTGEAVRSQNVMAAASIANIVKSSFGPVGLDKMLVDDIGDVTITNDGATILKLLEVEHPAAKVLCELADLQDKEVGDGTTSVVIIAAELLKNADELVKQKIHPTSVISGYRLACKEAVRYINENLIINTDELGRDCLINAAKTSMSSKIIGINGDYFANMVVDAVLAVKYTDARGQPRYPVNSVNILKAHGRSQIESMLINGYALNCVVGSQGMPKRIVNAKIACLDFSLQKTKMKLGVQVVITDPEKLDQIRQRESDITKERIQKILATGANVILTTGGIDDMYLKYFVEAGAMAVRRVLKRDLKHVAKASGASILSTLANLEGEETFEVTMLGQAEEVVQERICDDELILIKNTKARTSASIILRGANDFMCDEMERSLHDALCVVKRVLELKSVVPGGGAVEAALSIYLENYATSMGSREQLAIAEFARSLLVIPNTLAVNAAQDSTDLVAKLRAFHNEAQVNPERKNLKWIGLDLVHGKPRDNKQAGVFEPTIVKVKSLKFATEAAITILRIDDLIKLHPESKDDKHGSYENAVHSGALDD

B1: TRiC/CCT subunit CCT7, mouse, endogenous (protein, UniProt P80313 1-544)
chain: MMPTPVILLKEGTDSSQGIPQLVSNISACQVIAEAVRTTLGPRGMDKLIVDGRGKATISNDGATILKLLDVVHPAAKTLVDIAKSQDAEVGDGTTSVTLLAAEFLKQVKPYVEEGLHPQIIIRAFRTATQLAVNKIKEIAVTVKKQDKVEQRKMLEKCAMTALSSKLISQQKVFFAKMVVDAVMMLDELLQLKMIGIKKVQGGALEESQLVAGVAFKKTFSYAGFEMQPKKYKNPKIALLNVELELKAEKDNAEIRVHTVEDYQAIVDAEWNILYDKLEKIHQSGAKVILSKLPIGDVATQYFADRDMFCAGRVPEEDLKRTMMACGGSIQTSVNALVPDVLGHCQVFEETQIGGERYNFFTGCPKAKTCTIILRGGAEQFMEETERSLHDAIMIVRRAIKNDSVVAGGGAIEMELSKYLRDYSRTIPGKQQLLIGAYAKALEIIPRQLCDNAGFDATNILNKLRARHAQGGMWYGVDINNENIADNFQAFVWEPAMVRINALTAASEAACLIVSVDETIKNPRSTVDPPAPSAGRGRGQARFH
B2: TRiC/CCT subunit CCT2, mouse, endogenous (protein, UniProt P80314 1-535)
chain: MASLSLAPVNIFKAGADEERAETARLSSFIGAIAIGDLVKSTLGPKGMDKILLSSGRDAALMVTNDGATILKNIGVDNPAAKVLVDMSRVQDDEVGDGTTSVTVLAAELLREAESLIAKKIHPQTIISGWREATKAAREALLSSAVDHGSDEARFWQDLMNIAGTTLSSKLLTHHKDHFTKLAVEAVLRLKGSGNLEAIHVIKKLGGSLADSYLDEGFLLDKKIGVNQPKRIENAKILIANTGMDTDKIKIFGSRVRVDSTAKVAEIEHAEKEKMKEKVERILKHGINCFINRQLIYNYPEQLFGAAGVMAIEHADFAGVERLALVTGGEIASTFDHPELVKLGSCKLIEEVMIGEDKLIHFSGVALGEACTIVLRGATQQILDEAERSLHDALCVLAQTVKDPRTVYGGGCSEMLMAHAVTQLANRTPGKEAVAMESFAKALRMLPTIIADNAGYDSADLVAQLRAAHSEGHITAGLDMKEGTIGDMAVLGITESFQVKRQVLLSAAEAAEVILRVDNIIKAAPRKRVPDHHPC
B3: TRiC/CCT subunit CCT4, mouse, endogenous (protein, UniProt P80315 1-539)
chain: MPENVASRSGAPTAGPGSRGKSAYQDRDKPAQIRFSNISAAKAVADAIRTSLGPKGMDKMIQDGKGDVTITNDGATILKQMQVLHPAARMLVELSKAQDIEAGDGTTSVVIIAGSLLDSCTKLLQKGIHPTIISESFQKALEKGLEILTDMSRPVQLSDRETLLNSATTSLNSKVVSQYSSLLSPMSVNAVMKVIDPATATSVDLRDIKIVKKLGGTIDDCELVEGLVLTQKVANSGITRVEKAKIGLIQFCLSAPKTDMDNQIVVSDYAQMDRVLREERAYILNLVKQIKKTGCNVLLIQKSILRDALSDLALHFLNKMKIMVVKDVEREDIEFICKTIGTKPVAHIDQFTADMLGSAELAEEVSLNGSGKLFKITGCTSPGKTVTIVVRGSNKLVIEEAERSIHDALCVIRCLVKKRALIAGGGAPEIELALRLTEYSRTLSGMESYCVRAFADAMEVIPSTLAENAGLNPISTVTELRNRHAQGEKTTGINVRKGGISNILEEMVVQPLLVSVSALTLATETVRSILKIDDVVNTR
B4: TRiC/CCT subunit CCT3, mouse, endogenous (protein, UniProt P80318 1-545)
chain: MMGHRPVLVLSQNTKRESGRKVQSGNINAAKTIADIIRTCLGPKSMMKMLLDPMGGIVMTNDGNAILREIQVQHPAAKSMIEISRTQDEEVGDGTTSVIILAGEMLSVAEHFLEQQMHPTVVISAYRMALDDMISTLKKISTPVDVNNREMMLSIINSSITTKVISRWSSLACNIALDAVKTVQFEENGRKEIDIKKYARVEKIPGGIIEDSCVLRGVMINKDVTHPRMRRYIKNPRIVLLDSSLEYKKGESQTDIEITREEDFTRILQMEEEYIHQLCEDIIQLKPDVVITEKGISDLAQHYLMRANVTAIRRVRKTDNNRIARACGARIVSRPEELREDDVGTGAGLLEIKKIGDEYFTFITDCKDPKACTILLRGASKEILSEVERNLQDAMQVCRNVLLDPQLVPGGGASEMAVAHALTEKSKAMTGVEQWPYRAVAQALEVIPRTLIQNCGASTIRLLTSLRAKHTQESCETWGVNGETGTLVDMKELGIWEPLAVKLQTYKTAVETAVLLLRIDDIVSGHKKKGDDQNRQTGAPDAGQE
B5: TRiC/CCT subunit CCT8, mouse, endogenous (protein, UniProt P42932 1-548)
chain: MALHVPKAPGFAQMLKDGAKHFSGLEEAVYRNIQACKELAQTTRTAYGPNGMNKMVINRLEKLFVTNDAATILRELEVQHPAAKMIVMASHMQEQEVGDGTNFVLVFAGALLELAEELLRIGLSVSEVISGYEIACKKAHEILPELVCCSAKNLRDVDEVSSLLRTSIMSKQYGSETFLAKLIAQACVSIFPDSGNFNVDNIRVCKILGSGIYSSSVLHGMVFKKETEGDVTSVKDAKIAVYSCPFDGMITETKGTVLIKTAEELMNFSKGEENLMDAQVKAIAGTGANVIVTGGKVADIALHYANKYNIMLVRLNSKWDLRRLCKTVGATALPKLTPPVQEEMGHCDSVYLSEVGDTQVVVFKHEKEDGAISTIVLRGSTDNLMDDIERAVDDGVNTFKVLTRDKRLVPGGGATEIELAKQITSYGETCPGLEQYAIKKFAEAFEAIPRALAENSGVKANEVISKLYSVHQEGNKNVGLDIEAEVPAVKDMLEASILDTYLGKYWAIKLATNAAVTVLRVDQIIMAKPAGGPKPPSGKKDWDDDQND

Molecular target: FLAG-tagged Dcaf12 (mouse) (mouse) (UniProt Q8BGZ3)
Test: affinity purification with mass spectrometry; 889DTC cells stably expressing FLAG-tagged Dcaf12, 2 mM DSP crosslinking, NP-40 buffer lysis, anti-FLAG M2 affinity beads, LC-MS/MS

binding	Molecule
binds	TRiC/CCT subunit CCT1 (Tcp1), mouse, endogenous (from UniProt P11983 1-556)
binds	B1
binds	B2
binds	B3
binds	B4
binds	B5
